Measured values as given in patent US7404945B2, “Method of evaluating pharmacological effects of medicine” (Tokyo Gas Company Limited, priority 2002, dated 2008).
At least one compound was matched to its structure with a doubt left.

Test system: α-glucosidase
Assay: Glc-[U-13C]Glc breath test
Type: in vivo
Settings: rats, acarbose 2, 4, 10 mg/kg oral
Source text: The pharmacological effect of acarbose is the inhibition of α-glucosidase. Glc-[U-^13C]Glc (see Production Example 2) which is a substrate for α-glucosidase is provided as a pharmacological effect diagnostic reagent and a screening reagent.

**Q.** For `C[C@H]1O[C@H](O[C@H]2[C@H](O)[C@@H](O)[C@@H](O[C@H]3[C@H](O)[C@@H](O)C(O)O[C@@H]3CO)O[C@@H]2CO)[C@H](O)[C@@H](O)[C@@H]1N[C@H]1C=C(CO)[C@@H](O)[C@H](O)[C@H]1O` (stereo partly shown) [acarbose], which “function of the target enzyme” value is on record?
**A.** The value was “inhibited in a dose dependent manner”.
